Data source: PubChem BioAssay AID743121 (NCATS, 2013)

Assay: 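Genes whose silencing strengthens cell killing by camptothecin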 (primary screen)
Cell system: MDA-MB-231 cells, a human breast cancer line
Reagents: single siRNA against human genes, 20 nM siRNA (0.8 pmol per well)
Time to read-out: 120 h (drug added 48 h after transfection, read 72 h later)
Conditions: camptothecin 20 nM (about EC30) for 72 h; vehicle 0.1% DMSO in parallel plates
Measurement: 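CellTiter-Glo ATP signal, scaled to control siRNA as percent viability; sensitisation given as log2 of untreated divided by camptothecin-treated viability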
Scale: log2 vehicle/camptothecin viability: higher = stronger sensitisation to camptothecin; viability with camptothecin: higher = more viable cells
Hit rule: 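Active genes have an RSA gene-level p-value below 0.001, computed from the ratios of their separate siRNAs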
Shown is an unselected part of about 26,000 reagents. 167 of all reagents (0.63%) count as active. 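Calls are per gene from RSA p-values that are not deposited; an individual active-marked siRNA can sensitise only weakly.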 The numbers tell different reagents against one gene apart. Not all columns of the deposit are shown. No sequences are given here.

Which result is listed for GRIK1 (glutamate ionotropic receptor kainate type subunit 1) #1?
log2 vehicle/camptothecin viability: 0.858; viability with camptothecin (% of control): 26; call: inactive

For GRIK1 (glutamate ionotropic receptor kainate type subunit 1) #2, what was measured?
log2 vehicle/camptothecin viability: -0.00128; viability with camptothecin (% of control): 62.2; call: inactive

For GRIK1 (glutamate ionotropic receptor kainate type subunit 1) #3, what does the deposit list?
log2 vehicle/camptothecin viability: 0.0443; viability with camptothecin (% of control): 81.9; call: inactive

With IFNB1 (interferon beta 1) #1, what does the deposit list?
log2 vehicle/camptothecin viability: -0.344; viability with camptothecin (% of control): 75.5; call: inactive

With IFNB1 (interferon beta 1) #2, what does the deposit list?
log2 vehicle/camptothecin viability: -0.381; viability with camptothecin (% of control): 132; call: inactive

With IFNB1 (interferon beta 1) #3, what was measured?
log2 vehicle/camptothecin viability: 0.106; viability with camptothecin (% of control): 91.7; call: inactive

With IFNB1 (interferon beta 1) #4, how do the results read?
log2 vehicle/camptothecin viability: -0.0146; viability with camptothecin (% of control): 59.5; call: inactive

Which result is listed for OR4C11 (olfactory receptor family 4 subfamily C member 11) #1?
log2 vehicle/camptothecin viability: -0.122; viability with camptothecin (% of control): 93; call: inactive

What is on record for OR4C11 (olfactory receptor family 4 subfamily C member 11) #2?
log2 vehicle/camptothecin viability: -0.421; viability with camptothecin (% of control): 76.4; call: inactive

With OR4C11 (olfactory receptor family 4 subfamily C member 11) #3, what does the deposit list?
log2 vehicle/camptothecin viability: -0.142; viability with camptothecin (% of control): 112; call: inactive

For OR4C11 (olfactory receptor family 4 subfamily C member 11) #4, how do the results read?
log2 vehicle/camptothecin viability: -0.187; viability with camptothecin (% of control): 106; call: inactive

How did the screen score SCUBE1 (signal peptide, CUB domain and EGF like domain containing 1) #1?
log2 vehicle/camptothecin viability: 0.244; viability with camptothecin (% of control): 34.4; call: inactive

Which result is listed for SCUBE1 (signal peptide, CUB domain and EGF like domain containing 1) #2?
log2 vehicle/camptothecin viability: 0.237; viability with camptothecin (% of control): 17.3; call: inactive

What is on record for SCUBE1 (signal peptide, CUB domain and EGF like domain containing 1) #3?
log2 vehicle/camptothecin viability: 0.0159; viability with camptothecin (% of control): 74.6; call: inactive

For CAPN7 (calpain 7) #1, how do the results read?
log2 vehicle/camptothecin viability: 0.0412; viability with camptothecin (% of control): 94.2; call: inactive

Which result is listed for CAPN7 (calpain 7) #2?
log2 vehicle/camptothecin viability: -0.455; viability with camptothecin (% of control): 72.4; call: inactive

How did the screen score CAPN7 (calpain 7) #3?
log2 vehicle/camptothecin viability: -0.231; viability with camptothecin (% of control): 96.8; call: inactive

What did the screen give for CAPN7 (calpain 7) #4?
log2 vehicle/camptothecin viability: -0.0514; viability with camptothecin (% of control): 98.5; call: inactive

For INCENP (inner centromere protein) #1, what was measured?
log2 vehicle/camptothecin viability: -0.492; viability with camptothecin (% of control): 44.4; call: inactive

For INCENP (inner centromere protein) #2, what does the deposit list?
log2 vehicle/camptothecin viability: -0.387; viability with camptothecin (% of control): 17.5; call: inactive

For INCENP (inner centromere protein) #3, what does the deposit list?
log2 vehicle/camptothecin viability: -0.904; viability with camptothecin (% of control): 59.6; call: inactive

How did the screen score INCENP (inner centromere protein) #4?
log2 vehicle/camptothecin viability: -0.355; viability with camptothecin (% of control): 76.2; call: inactive

For TRAF7 (TNF receptor associated factor 7) #1, how do the results read?
log2 vehicle/camptothecin viability: -0.126; viability with camptothecin (% of control): 101; call: inactive

With TRAF7 (TNF receptor associated factor 7) #2, what was measured?
log2 vehicle/camptothecin viability: -0.438; viability with camptothecin (% of control): 53; call: inactive

Which result is listed for TRAF7 (TNF receptor associated factor 7) #3?
log2 vehicle/camptothecin viability: 0.0835; viability with camptothecin (% of control): 96.9; call: inactive

With TRAF7 (TNF receptor associated factor 7) #4, what was measured?
log2 vehicle/camptothecin viability: 0.049; viability with camptothecin (% of control): 28.2; call: inactive

Which result is listed for APLP1 (amyloid beta precursor like protein 1) #1?
log2 vehicle/camptothecin viability: -0.171; viability with camptothecin (% of control): 92.8; call: inactive

With APLP1 (amyloid beta precursor like protein 1) #2, how do the results read?
log2 vehicle/camptothecin viability: -0.16; viability with camptothecin (% of control): 115; call: inactive

For APLP1 (amyloid beta precursor like protein 1) #3, how do the results read?
log2 vehicle/camptothecin viability: -0.513; viability with camptothecin (% of control): 101; call: inactive

How did the screen score APLP1 (amyloid beta precursor like protein 1) #4?
log2 vehicle/camptothecin viability: -0.431; viability with camptothecin (% of control): 92; call: inactive

What did the screen give for PDIA4 (protein disulfide isomerase family A member 4) #1?
log2 vehicle/camptothecin viability: 0.00537; viability with camptothecin (% of control): 21.9; call: inactive

With PDIA4 (protein disulfide isomerase family A member 4) #2, what does the deposit list?
log2 vehicle/camptothecin viability: -0.595; viability with camptothecin (% of control): 37.9; call: inactive

How did the screen score PDIA4 (protein disulfide isomerase family A member 4) #3?
log2 vehicle/camptothecin viability: 0.0104; viability with camptothecin (% of control): 92.4; call: inactive

How did the screen score ROPN1 (rhophilin associated tail protein 1) #1?
log2 vehicle/camptothecin viability: 0.179; viability with camptothecin (% of control): 102; call: inactive

With ROPN1 (rhophilin associated tail protein 1) #2, how do the results read?
log2 vehicle/camptothecin viability: -0.0341; viability with camptothecin (% of control): 39.6; call: inactive

What did the screen give for ROPN1 (rhophilin associated tail protein 1) #3?
log2 vehicle/camptothecin viability: 0.189; viability with camptothecin (% of control): 27; call: inactive

For ROPN1 (rhophilin associated tail protein 1) #4, what was measured?
log2 vehicle/camptothecin viability: -0.306; viability with camptothecin (% of control): 72.7; call: inactive

4 consecutive records already listed, quoted:
IFNB1 (interferon beta 1) #4 | log2 vehicle/camptothecin viability = -0.0146; viability with camptothecin (% of control) = 59.5; call = inactive
OR4C11 (olfactory receptor family 4 subfamily C member 11) #1 | log2 vehicle/camptothecin viability = -0.122; viability with camptothecin (% of control) = 93; call = inactive
OR4C11 (olfactory receptor family 4 subfamily C member 11) #2 | log2 vehicle/camptothecin viability = -0.421; viability with camptothecin (% of control) = 76.4; call = inactive
OR4C11 (olfactory receptor family 4 subfamily C member 11) #3 | log2 vehicle/camptothecin viability = -0.142; viability with camptothecin (% of control) = 112; call = inactive
